Binding data for 2 substances are collected here from PMC7487413.

Chains of the proteins cited; added tags and fusions are not shown. Residues count along the entry.
UniProt P35555, residues 45-2731: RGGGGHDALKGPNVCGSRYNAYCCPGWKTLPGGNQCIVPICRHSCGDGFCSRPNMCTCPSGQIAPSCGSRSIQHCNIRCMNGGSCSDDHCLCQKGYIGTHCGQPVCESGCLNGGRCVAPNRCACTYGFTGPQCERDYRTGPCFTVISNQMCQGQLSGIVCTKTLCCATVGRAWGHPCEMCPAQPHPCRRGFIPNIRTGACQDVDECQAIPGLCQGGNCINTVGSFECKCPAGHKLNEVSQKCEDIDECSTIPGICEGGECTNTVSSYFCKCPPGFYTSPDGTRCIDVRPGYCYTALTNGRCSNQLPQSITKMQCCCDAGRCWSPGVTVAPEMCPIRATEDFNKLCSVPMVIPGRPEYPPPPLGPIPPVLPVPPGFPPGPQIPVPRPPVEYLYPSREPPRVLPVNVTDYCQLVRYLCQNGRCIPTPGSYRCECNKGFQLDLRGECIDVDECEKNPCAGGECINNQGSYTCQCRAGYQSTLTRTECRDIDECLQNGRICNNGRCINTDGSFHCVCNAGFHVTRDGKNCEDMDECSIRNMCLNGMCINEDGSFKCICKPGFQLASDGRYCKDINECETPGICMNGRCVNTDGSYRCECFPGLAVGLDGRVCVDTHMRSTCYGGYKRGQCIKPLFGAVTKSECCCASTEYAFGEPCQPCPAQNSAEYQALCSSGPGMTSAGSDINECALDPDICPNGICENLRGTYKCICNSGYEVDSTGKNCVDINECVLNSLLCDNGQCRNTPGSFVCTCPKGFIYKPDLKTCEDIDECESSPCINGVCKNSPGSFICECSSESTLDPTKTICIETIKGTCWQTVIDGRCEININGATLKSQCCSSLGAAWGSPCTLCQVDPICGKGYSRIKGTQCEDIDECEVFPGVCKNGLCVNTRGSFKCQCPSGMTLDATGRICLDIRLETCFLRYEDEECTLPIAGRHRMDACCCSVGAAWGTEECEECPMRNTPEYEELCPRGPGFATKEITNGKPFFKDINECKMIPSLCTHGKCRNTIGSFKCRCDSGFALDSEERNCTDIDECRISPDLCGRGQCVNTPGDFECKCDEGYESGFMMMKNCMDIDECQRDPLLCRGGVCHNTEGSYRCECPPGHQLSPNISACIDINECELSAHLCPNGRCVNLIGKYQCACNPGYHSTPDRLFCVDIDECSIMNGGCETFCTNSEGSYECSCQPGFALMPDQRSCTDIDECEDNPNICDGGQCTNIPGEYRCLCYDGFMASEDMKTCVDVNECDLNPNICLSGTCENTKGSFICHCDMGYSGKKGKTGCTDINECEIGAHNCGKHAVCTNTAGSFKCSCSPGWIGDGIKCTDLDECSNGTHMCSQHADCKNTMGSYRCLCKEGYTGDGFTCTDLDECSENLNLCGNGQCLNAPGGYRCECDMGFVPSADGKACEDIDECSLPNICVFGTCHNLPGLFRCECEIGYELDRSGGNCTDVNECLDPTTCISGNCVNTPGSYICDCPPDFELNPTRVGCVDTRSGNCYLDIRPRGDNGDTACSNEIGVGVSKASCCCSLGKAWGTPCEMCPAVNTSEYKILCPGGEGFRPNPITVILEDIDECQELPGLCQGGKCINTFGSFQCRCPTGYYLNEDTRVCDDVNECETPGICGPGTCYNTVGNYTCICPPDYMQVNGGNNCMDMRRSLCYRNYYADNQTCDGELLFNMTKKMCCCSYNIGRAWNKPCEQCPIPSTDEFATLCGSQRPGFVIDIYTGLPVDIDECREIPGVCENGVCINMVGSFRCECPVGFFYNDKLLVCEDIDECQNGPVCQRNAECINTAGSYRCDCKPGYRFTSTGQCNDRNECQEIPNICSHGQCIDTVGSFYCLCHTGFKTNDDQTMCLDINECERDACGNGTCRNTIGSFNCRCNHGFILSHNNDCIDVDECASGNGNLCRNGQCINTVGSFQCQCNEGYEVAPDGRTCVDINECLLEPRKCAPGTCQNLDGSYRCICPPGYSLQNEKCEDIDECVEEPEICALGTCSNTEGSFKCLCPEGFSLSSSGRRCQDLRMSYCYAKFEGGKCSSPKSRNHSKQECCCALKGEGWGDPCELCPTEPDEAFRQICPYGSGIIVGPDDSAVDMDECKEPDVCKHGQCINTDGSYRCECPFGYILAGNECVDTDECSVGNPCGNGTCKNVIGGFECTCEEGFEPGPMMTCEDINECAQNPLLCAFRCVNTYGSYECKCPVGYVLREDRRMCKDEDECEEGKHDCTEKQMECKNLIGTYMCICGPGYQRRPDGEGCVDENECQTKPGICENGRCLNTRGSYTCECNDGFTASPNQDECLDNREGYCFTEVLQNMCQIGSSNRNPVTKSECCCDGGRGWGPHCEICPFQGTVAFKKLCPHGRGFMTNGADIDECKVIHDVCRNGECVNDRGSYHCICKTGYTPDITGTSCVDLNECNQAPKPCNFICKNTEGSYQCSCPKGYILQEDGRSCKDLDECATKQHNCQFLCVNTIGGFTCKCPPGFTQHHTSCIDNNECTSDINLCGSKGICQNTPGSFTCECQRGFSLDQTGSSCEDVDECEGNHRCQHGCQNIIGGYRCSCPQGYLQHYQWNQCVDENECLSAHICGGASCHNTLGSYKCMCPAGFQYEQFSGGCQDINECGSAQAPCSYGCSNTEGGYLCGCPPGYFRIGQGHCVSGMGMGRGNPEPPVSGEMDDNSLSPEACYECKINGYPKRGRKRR

For assay [1], the target named is T1, FBXO2 (F-box only protein 2), endogenous (human (endogenous in RL95-2 and Ishikawa)) (UniProt Q9UK22).
T1 sequence: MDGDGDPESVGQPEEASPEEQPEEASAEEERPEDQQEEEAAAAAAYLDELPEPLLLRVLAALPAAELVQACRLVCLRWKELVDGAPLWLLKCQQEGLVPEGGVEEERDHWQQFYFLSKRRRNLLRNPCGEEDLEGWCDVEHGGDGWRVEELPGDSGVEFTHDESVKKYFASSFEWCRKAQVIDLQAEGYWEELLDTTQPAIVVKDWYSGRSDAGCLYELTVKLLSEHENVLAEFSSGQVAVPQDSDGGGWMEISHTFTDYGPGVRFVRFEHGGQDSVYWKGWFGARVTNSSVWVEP
Nature of the assay: co-IP; endogenous proteins; RL95-2 and Ishikawa cell lysates precipitated with anti-FBXO2 or anti-FBN1 and protein A/G agarose, western blot.

Assay [2] addresses T2, Flag-tagged wild-type (WT) FBXO2 (F-box only protein 2) (human) (UniProt Q9UK22).
T2 sequence: T1 sequence
Nature of the assay: co-IP; HEK-293T cells co-transfected with Flag-FBXO2 and Myc-FBN1 for 48 h, 20 uM MG132 for 8 h; lysates precipitated with anti-Flag or anti-Myc beads, western blot.

These are yes or no findings as the source states them, for the method shown. Binding seen in cells or lysates may run through a third protein. Some binding calls cover weakened binding; strength is not graded here. For some assays here: Sequences can lack the tags named with a protein.

Take “FBN1 (fibrillin1), endogenous (from UniProt P35555 45-2731)”: the binding entry in assay [1] was “binds”.
Turning to “Myc-tagged FBN1 (fibrillin1) (from UniProt P35555 45-2731)”, the binding entry in assay [2] is listed as “binds”.
